According to article PMC4350344:

Biological target: protein-kinase-C-related kinase 1 (PRK1/PKN1) (human (endogenous in PC-3M-luc2)) (UniProt Q16512)
Experiment: affinity purification with mass spectrometry; immunoprecipitation with an anti-PRK1 antibody from PC-3M-luc2 cell extracts, then mass spectrometry

B1: sperm-associated antigen 9 (SPAG9/JIP4) (protein, UniProt O60271-1 1-1321)
chain: MELEDGVVYQEEPGGSGAVMSERVSGLAGSIYREFERLIGRYDEEVVKELMPLVVAVLENLDSVFAQDQEHQVELELLRDDNEQLITQYEREKALRKHAEEKFIEFEDSQEQEKKDLQTRVESLESQTRQLELKAKNYADQISRLEEREAELKKEYNALHQRHTEMIHNYMEHLERTKLHQLSGSDQLESTAHSRIRKERPISLGIFPLPAGDGLLTPDAQKGGETPGSEQWKFQELSQPRSHTSLKVSNSPEPQKAVEQEDELSDVSQGGSKATTPASTANSDVATIPTDTPLKEENEGFVKVTDAPNKSEISKHIEVQVAQETRNVSTGSAENEEKSEVQAIIESTPELDMDKDLSGYKGSSTPTKGIENKAFDRNTESLFEELSSAGSGLIGDVDEGADLLGMGREVENLILENTQLLETKNALNIVKNDLIAKVDELTCEKDVLQGELEAVKQAKLKLEEKNRELEEELRKARAEAEDARQKAKDDDDSDIPTAQRKRFTRVEMARVLMERNQYKERLMELQEAVRWTEMIRASRENPAMQEKKRSSIWQFFSRLFSSSSNTTKKPEPPVNLKYNAPTSHVTPSVKKRSSTLSQLPGDKSKAFDFLSEETEASLASRREQKREQYRQVKAHVQKEDGRVQAFGWSLPQKYKQVTNGQGENKMKNLPVPVYLRPLDEKDTSMKLWCAVGVNLSGGKTRDGGSVVGASVFYKDVAGLDTEGSKQRSASQSSLDKLDQELKEQQKELKNQEELSSLVWICTSTHSATKVLIIDAVQPGNILDSFTVCNSHVLCIASVPGARETDYPAGEDLSESGQVDKASLCGSMTSNSSAETDSLLGGITVVGCSAEGVTGAATSPSTNGASPVMDKPPEMEAENSEVDENVPTAEEATEATEGNAGSAEDTVDISQTGVYTEHVFTDPLGVQIPEDLSPVYQSSNDSDAYKDQISVLPNEQDLVREEAQKMSSLLPTMWLGAQNGCLYVHSSVAQWRKCLHSIKLKDSILSIVHVKGIVLVALADGTLAIFHRGVDGQWDLSNYHLLDLGRPHHSIRCMTVVHDKVWCGYRNKIYVVQPKAMKIEKSFDAHPRKESQVRQLAWVGDGVWVSIRLDSTLRLYHAHTYQHLQDVDIEPYVSKMLGTGKLGFSFVRITALMVSCNRLWVGTGNGVIISIPLTETNKTSGVPGNRPGSVIRVYGDENSDKVTPGTFIPYCSMAHAQLCFHGHRDAVKFFVAVPGQVISPQSSSSGTDLTGDKAGPSAQEPGSQTPLKSMLVISGGEGYIDFRMGDEGGESELLGEDLPLEPSVTKAERSHLIVWQVMYGNE
- binding: binds

Results are given in words; binding and its absence hold for the method and conditions named. Binding seen in cells or lysates may run through a third protein. Here binding means that the protein was enriched with, or labelled near, the bait; the list need not be complete.
